The text below walks through data of PubChem BioAssay AID445 (National Center for Advancing Translational Sciences (NCATS), 2006).

The nature of this test: IkB Signaling. The note with it: ABC-DLBCL IkBa-CBG/CBR dual luciferase ratio (green luciferase fused to IkBa over red control in OCI-Ly3 lymphoma cells), 4 h. The method in brief:
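Curves were fitted separately to fusion (green), unfused (red) and ratio luminescence, then classed by r2, magnitude and activity. Cells: OCI-Ly3, 4 h compound plus doxycycline at 37C; 10 uM MG-132 defined full response.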

Where [1] appears, read: measured here: control luc red channel unless noted.
The mark [2] stands for this setting: measured here: IkB-luc green channel.
The mark [3] stands for this setting: measured here: control luc red channel.

The structures appear in SMILES notation. The list shows a part of the results. These are further read-outs of the screen, such as a control signal, another cell line or another target. No call is given for them. The list favours compounds with an active or inconclusive main result. The note in brackets gives the kind of curve behind each potency; many fits are weak.

Take `Cc1cccc(N2CCN(C(=O)CCSCc3ccccc3F)CC2)c1C`: the AC50 under setting [1] was 39.8 µM [falling, single point].
With `COc1ccccc1N1CCN(C(=O)Cn2ncc3c(=O)oc4ccc(C)cc4c32)CC1`, the AC50 under setting [1] is 12.6 µM [falling, partial curve].
Still for that read-out and setting: the same measure for `CN(C)S(=O)(=O)c1ccc(C(=O)Nc2ccc(-n3nncc3-c3ccccc3)cc2)cc1`: 31.6 µM [falling, single point].
Consider `O=C(COC(=O)c1c2c(nc3ccccc13)CCCC2)Nc1ccc2c(c1)OCO2`, for which the AC50 under setting [1] was 12.6 µM [falling, partial curve].
For the molecule `CCCc1[nH][nH]c(=O)c1C(c1ccccc1)C(C#N)C#N` (stereo not given), the AC50 under setting [1] was 39.8 µM [rising, single point] [measured here: IkB-luc green channel].
`CCCCNC(=O)c1cnn2c(C)c(Cc3c(F)cccc3Cl)c(C)nc12`: the AC50 under setting [1] is 39.8 µM [falling, partial curve].
Regarding `COc1ccc(-c2cc(C(=O)N3CCN(c4ccccn4)CC3)c3ccccc3n2)cc1`, the AC50 under setting [1] is 7.94 µM [falling, partial curve].
Consider `COc1ccc(Cc2nccc3cc(OC)c(OC)cc23)cc1OC`, for which the AC50 under setting [1] is 39.8 µM [rising, single point] [measured here: IkB-luc green channel].
`Cc1nc2cc(NC(=O)N(C)c3ccc4ccccc4c3)ccc2o1`: the AC50 under setting [1] was 20 µM [falling, partial curve].
`O=C1NCCCc2c1oc1cc(Br)c(O)c(Br)c21`: the half-maximal activity concentration (AC50) under setting [1] is 25.1 µM [falling, single point].
Consider `CCOC(=O)c1ccccc1NC(=O)CSc1nnc(COc2ccccc2)n1CC`, for which the AC50 under setting [1] is 25.1 µM [falling, partial curve].
With `CN1CCN(c2cc3c(c4c2[nH]c2ccccc24)C(=O)CC(C)(C)C3)CC1`, the AC50 under setting [1] is 25.1 µM [falling, partial curve].
`COc1ccc(OC)c(CCNC(=O)c2c(C)oc3ncn(C)c(=O)c23)c1`: the AC50 under setting [1] is 0.2 µM [falling, full curve, poor fit].
Turning to `CCc1cccc(NC(=O)CCc2nc(-c3cccs3)no2)c1`, under setting [1], the AC50 was 25.1 µM [falling, single point].
In the case of `CC1CCc2c(C(=O)Oc3cccc(-n4cnnn4)c3)csc2C1` (stereo not given), the AC50 under setting [1] was 10 µM [falling, partial curve].
On the same count and under the same terms, under `CCOc1ccc(CN2CCN(c3ncnc4sc5c(c34)CC(C)CC5)CC2)cc1` (stereo not given) stands 39.8 µM [falling, single point]; under `COc1ccccc1C(=O)Nc1nnc(S(=O)(=O)N(C)c2ccc(Cl)cc2)s1`, 25.1 µM [falling, single point].
Regarding `Cc1nc2sc(C(c3cccs3)N3CCOCC3)c(O)n2n1` (stereo not given), the AC50 was 10 µM [rising, partial curve] under setting [2] and 3.16 µM [falling, full curve] under setting [3].
`COc1ccc(Cl)cc1NC(=O)c1ccc2c(c1)CCCN2S(C)(=O)=O`: the AC50 under setting [1] is 25.1 µM [falling, partial curve].
As to `O=c1cnc2cncnc2n1Cc1ccccc1Cl`, the AC50 under setting [1] is 6.31 µM [rising, single point] [measured here: IkB-luc green channel].
Turning to `O=C(NCCSc1c(-c2ccccc2)[nH]c2ccccc12)c1ccc(S(=O)(=O)N2CCOCC2)cc1`, the AC50 under setting [1] was 3.16 µM [falling, full curve].
Still for that read-out and setting: under `Cc1ccccc1OCc1ccc(-c2nc(C#N)c(N3CCC(C(N)=O)CC3)o2)o1` stands 5.01 µM [rising, partial curve].
As to `CC(=O)Nc1ccc(S(=O)(=O)NCCS(=O)(=O)N2CCN(c3ccccc3F)CC2)cc1`, the AC50 under setting [1] was 25.1 µM [falling, single point].
Consider `CCOc1ccc2c(c1)c(=O)c(S(=O)(=O)c1ccc(Cl)cc1)cn2Cc1ccccc1C`, for which the AC50 under setting [1] was 12.6 µM [falling, partial curve].
As to `COc1ccc(CCNc2oc(COc3ccccc3F)nc2C#N)cc1OC`, the AC50 was 25.1 µM [falling, partial curve] under setting [2] and 25.1 µM [falling, partial curve] under setting [3].
In the case of `N#Cc1nc(COc2cccc(Cl)c2)oc1NCc1ccncc1`, under setting [1], the AC50 is 12.6 µM [falling, partial curve].
As to `Cc1ccccc1-c1nc(SCC(=O)N(C)c2ccccc2)c2c(=O)n(C)c(=O)n(C)c2n1`, the AC50 under setting [1] is 0.02 µM [falling, full curve, poor fit].
Regarding `COc1cc(NC(=O)CC2C(=O)N(c3cccc(C)c3)C(=O)N2Cc2cccs2)cc(OC)c1` (stereo not given), under setting [1], the AC50 is 20 µM [falling, partial curve].
As for `Cc1cc(C)c(S(=O)(=O)NCCc2csc3nc(-c4ccc(Cl)cc4)nn23)c(C)c1`, under setting [1], the AC50 is 25.1 µM [falling, partial curve].
On the same count and under the same terms, under `O=c1c2c3c(sc2n(Cc2ccc(F)cc2Cl)c(=O)n1-c1ccc(Cl)cc1)CCC3` stands 0.316 µM [rising, full curve]; under `CC(=O)c1ccc(NC(=O)Cn2nc(C(F)(F)F)c3c2CCCC3)cc1`, 15.8 µM [falling, partial curve].
Regarding `CCSc1nn(CC(=O)Nc2cccc(Cl)c2)c(N)c1S(=O)(=O)c1ccc(OC)cc1`, under setting [1], the AC50 is 25.1 µM [falling, partial curve].
Still for that read-out and setting: the same measure for `COc1ccc(C)cc1-n1nnnc1SCC(=O)N1CCC(C(=O)Nc2nccs2)CC1`: 12.6 µM [falling, partial curve]; for `COc1ccc(-c2nc(SCC(=O)Nc3ccc4c(c3)OCCO4)c(-c3ccccc3)[nH]2)cc1`: 6.31 µM [falling, partial curve].
Take `CCc1ccc(NC(=O)Cn2c(=O)n(-c3cc(C)cc(C)c3)c(=O)c3oc4ccccc4c32)cc1`: under setting [1], the AC50 is 12.6 µM [falling, partial curve].
Same read-out and setting: the same measure for `Cc1ccc(-n2nc3c(=O)n(CCCC(=O)NC(C)c4ccccc4)nc(C)c3c2C)cc1` (stereo not given): 15.8 µM [falling, partial curve].
As for `Cc1ccc2oc(C(=O)Nc3sc4c(c3C(=O)NCc3cccnc3)CCCC4)cc(=O)c2c1`, the AC50 under setting [1] was 15.8 µM [rising, partial curve].
Same read-out and setting: the same measure for `CCCNC(=O)c1cnc2c(-c3ccc(OCC)c(OCC)c3)c(C)nn2c1-c1ccccc1`: 15.8 µM [falling, partial curve].
